PubChem BioAssay AID602196 | INSERM – 2012
Purpose: 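Modifiers of cisplatin sensitivity in A549 cells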. Cell system: human A549 lung cancer cells. Reagents: siRNA pair against human genes. Time to read-out: 48 h transfection before cisplatin; time from cisplatin to read-out not stated. Treatment: cisplatin at a dose killing half of control-siRNA cells; exact dose and duration not given. Measured: 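Shift in cisplatin death relative to control siRNA, from -50 (all cells die) to +50 (no cells die); siRNAs harmful on their own scored 0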. Direction: two-siRNA summed score (-2 to +2): higher = both siRNAs protect from cisplatin killing; -2 means both sensitise; mean protection from cisplatin (shift in death) and protection from cisplatin (shift in death), siRNA C: higher = protection from cisplatin killing. Active means: 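Each siRNA scores 0 if harmful alone by LDH or WST-1, otherwise +1 if it reduces and -1 if it increases cisplatin killing; a gene is active when both siRNAs agree (sum +2 or -2)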. Calls: active = both siRNAs shift cisplatin killing the same way; inactive = no consistent shift, or siRNA harmful alone.
Shown is an unselected part of about 23,000 reagents tested. In the full data, 455 (2%) are marked active. 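Active includes both protection and sensitisation; some change values fall well beyond the stated -50 to +50 range.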 Entries without a mark were called inactive. Further read-outs or replicates are left out here. Not given: the amount of reagent.

target,two-siRNA summed score (-2 to +2),mean protection from cisplatin (shift in death) (%),"protection from cisplatin (shift in death), siRNA C (%)"
SLC22A6,0,7.6,14.4
ATF1,-1,-12.3,1
LOC152667,0,6.8,10.7
LOC441139,1,6,-5.7
SPATA32,0,-5,-3.1
NOVA1,1,28.6,17.7
ZSCAN4,0,4.2,7.9
MYL3,0,-8.7,-20.1
IL5RA,0,-0.4,2.2
ZNF280D,-1,-8.8,-15.9
CLDN7,0,18.1,18.4
DKFZp434I1117,0,-0.2,-5.6
LOC400691,0,10,3.8
CEP20,0,2,5.2
CDK3,0,3.2,7.3
LOC440506,1,11.5,6.7
LOC400790,0,4,6.6
HNRNPF,0,-6.6,-9.5
LINC02092,0,-9.8,-15.1
LOC441928,0,7.3,3.8
LOC401125,0,17.5,17.8
ACADS,1,1.8,14.3
MATN3,0,5.2,9.8
LOC440258,0,2.5,-5.3
PKIG,1,12.6,9.2
LOC439957,0,10.6,18.2
TUBG1,-1,-4.1,4.8
OXGR1,-1,-10.3,-21.1
TLR3,0,0.9,0.5
PRMT2,0,10.9,12.1
PTGFRN,0,11.9,-0.1
ZBTB48,1,-2.3,-20.7
CD84,0,8.2,14.9
MRGPRE,0,-6.2,-6.7
LOC440841,0,25.2,39.5
ARL11,0,1,-9.2
CYB5D1,0,2.4,2.4
LOC441055,0,-2.9,-3.9
NEO1,1,4.5,-19.3
PPIH,0,4.6,4.3
MARCHF11-DT,0,3.8,7.6
DDHD1,0,5.9,5.9
TSACC,-1,-11.2,-9.6
NFYBP1,0,2.2,5.4
ANXA8L1,0,6.1,11.9
CPS1,0,15,19.8
LOC441553,1,4.6,-9.5
SYNGR2,0,-5.6,-6.6
MOCS1,0,7.6,0.4
CRCT1,0,6.7,5.6
BBOF1,0,0,6.6
LOC388621,0,25.1,21.8
LOC442669,2 (active),19.6,14.1
TEKT5,0,2.3,1.1
LOC440674,1,8.2,7.2
AFG2A,0,1.9,5.9
LOC253314,0,7.8,9.4

5 entries already listed, sorted by “protection from cisplatin (shift in death), siRNA C (%)”, ascending:
target,two-siRNA summed score (-2 to +2),mean protection from cisplatin (shift in death) (%),"protection from cisplatin (shift in death), siRNA C (%)"
TEKT5,0,2.3,1.1
AFG2A,0,1.9,5.9
LOC440674,1,8.2,7.2
LOC442669,2 (active),19.6,14.1
LOC388621,0,25.1,21.8
